This assay has as its target recombinant LRP6 (R&D Systems Cat#1505-LR) (UniProt O75581). Nature of the assay: ELISA on plates coated with 1 µg/ml recombinant LRP6; bound DKK1 detected with anti-DKK1 antibody AF1096. Background: In an ELISA, binding on a coated surface is turned into a signal by an enzyme label.

By UniProt entry, the sequences of proteins in these tests, tags left out. Residues count along the entry.
UniProt O75581, residues 20-1370: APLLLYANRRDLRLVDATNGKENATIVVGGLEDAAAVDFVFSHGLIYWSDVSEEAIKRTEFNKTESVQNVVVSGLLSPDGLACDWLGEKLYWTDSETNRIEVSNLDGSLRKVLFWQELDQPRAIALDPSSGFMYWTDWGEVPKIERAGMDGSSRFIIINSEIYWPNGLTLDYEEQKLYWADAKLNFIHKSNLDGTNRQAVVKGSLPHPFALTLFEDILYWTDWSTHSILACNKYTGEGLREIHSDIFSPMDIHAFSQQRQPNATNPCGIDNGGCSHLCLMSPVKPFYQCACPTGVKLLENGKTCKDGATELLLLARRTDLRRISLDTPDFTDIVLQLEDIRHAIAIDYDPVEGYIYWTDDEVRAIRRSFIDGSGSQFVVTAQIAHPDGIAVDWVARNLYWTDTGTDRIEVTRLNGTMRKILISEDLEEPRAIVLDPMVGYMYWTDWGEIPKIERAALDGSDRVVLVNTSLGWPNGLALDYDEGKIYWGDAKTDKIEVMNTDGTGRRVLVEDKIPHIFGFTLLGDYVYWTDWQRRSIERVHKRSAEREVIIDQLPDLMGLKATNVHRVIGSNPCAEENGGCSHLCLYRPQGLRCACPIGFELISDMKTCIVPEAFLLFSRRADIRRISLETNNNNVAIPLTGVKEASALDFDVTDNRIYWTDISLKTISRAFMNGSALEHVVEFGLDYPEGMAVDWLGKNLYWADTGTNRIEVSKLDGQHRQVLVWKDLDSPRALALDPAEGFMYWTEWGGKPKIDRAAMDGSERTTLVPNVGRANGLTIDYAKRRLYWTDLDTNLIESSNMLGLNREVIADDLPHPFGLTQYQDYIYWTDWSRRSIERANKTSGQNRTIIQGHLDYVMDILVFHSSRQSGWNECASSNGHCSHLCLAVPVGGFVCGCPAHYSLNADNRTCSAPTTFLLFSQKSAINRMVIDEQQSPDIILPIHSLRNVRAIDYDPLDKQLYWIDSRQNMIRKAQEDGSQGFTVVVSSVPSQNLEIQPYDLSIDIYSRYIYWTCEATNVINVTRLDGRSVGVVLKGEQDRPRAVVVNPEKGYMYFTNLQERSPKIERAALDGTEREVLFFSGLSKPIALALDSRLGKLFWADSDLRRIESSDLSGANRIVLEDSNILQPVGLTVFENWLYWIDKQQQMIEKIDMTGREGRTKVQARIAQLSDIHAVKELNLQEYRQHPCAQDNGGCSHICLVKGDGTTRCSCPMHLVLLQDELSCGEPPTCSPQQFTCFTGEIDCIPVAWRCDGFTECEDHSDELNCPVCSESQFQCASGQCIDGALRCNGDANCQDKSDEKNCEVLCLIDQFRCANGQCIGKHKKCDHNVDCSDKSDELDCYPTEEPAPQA

Results are given in words; binding and its absence hold for the method and conditions named. Some results given as binding are weak or reduced against the parent protein; the word gives no strength.

B1: recombinant human DKK1 (ligand)
chain: TLNSVLNSNAIKNLPPPLGGAAGHPGSAVSAAPGILYPGGNKYQTIDNYQPYPCAEDEECGTDEYCASPTRGGDAGVQICLACRKRRKRCMRHAMCCPGNYCKNGICVSSDQNHFRGEIEETITESFGNDHSTLDGYSRRTTLSSKMYHTKGQEGSVCLRSSDCASGLCCARHFWSKICKPVLKEGQVCTKHRRKGSHGLEIFQRCYCGEGLSCRIQKDHHQASNSSRLHTCQRH
Take B1: the binding result is given as “binds”.

Source of the values: patent US20120052070A1.
